In article PMC12431657, “Discovery and mechanistic insights of dibenzoylmethane as a broad spectrum inhibitor of coronavirus” (PLOS Pathogens, 2025):
Structures can show the parent of a compound that is named as a salt. Where two headings read alike, the source gives them in different places. Among all 3,300 compounds or so, about 95 (3%) showed an effect of 50% or more. The list shows a part of the results.

Test system: HCoV-229E
Design: species or system Huh-7; HTS, protection from HCoV-229E induced cell death, luminescent cell viability (CellCounting-Lite 2.0), inhibition rate
Conditions: 24 h post infection, 1 h compound pre-incubation, 10 µM, inhibitor

Structure (SMILES)	229E Inhibition rate [%]	229E Inhibition rate (229E Inhibition rate, 24 h) [%]
CCCCCCC(CCCCCCCCCC(=O)O)C(=O)OCC(O)CO (stereo not shown) [Caprylic/Capric Triglyceride]	35.8	–
CCCCCCCCCCCCCCC(O)C(=O)O (stereo not shown) [2-Hydroxypalmitic acid]	17.2	–
O=c1cc(-c2ccc(O)cc2)oc2cc(O)cc(O)c12 [Apigenin]	55.5	–
O=C(O)CCCCCCCCCCCCC(=O)O [Tetradecanedioic acid]	8	–
C[Se]CC[C@H](N)C(=O)O [Selenomethionine]	–	11.2
C=C(C)C(=O)Cc1c(OC)ccc2ccc(=O)oc12 [Murrayone]	14	–
O=c1cc(-c2ccccc2)oc2cc(O[C@@H]3O[C@H](CO)[C@@H](O)[C@H](O)[C@H]3O)c(O)c(O)c12 [Oroxin A]	34.7	–
NC(Cc1cccc(O)c1)C(=O)O (racemic) [DL-m-Tyrosine]	6.4	–
COc1cc2c(cc1OC)[C@H](C)NCC2 [Salsolidine]	0	–
O=Cc1cccc(O)c1 [3-Hydroxybenzaldehyde]	10.5	–
COc1c(CC=C(C)C)c(O)cc2oc(=O)c3c4ccc(O)cc4oc3c12 [Neoglycyrol]	90.8	–
NCCc1cc(O)c(O)c(O)c1 [5-Hydroxydopamine hydrochloride]	11.7	–
C/C=C/C=C/C(=O)O [Sorbic acid]	–	16.1
C=C[C@H]1[C@H](O[C@@H]2O[C@H](CO)[C@@H](O)[C@H](O)[C@H]2O)OC=C(C(=O)OC)[C@H]1CC=O [Secologanin]	9.8	–
CC1(C)CC[C@]2(C(=O)O)CC[C@]3(C)C(=CC[C@@H]4[C@@]5(C)CC[C@H](O[C@@H]6OC[C@H](O)[C@H](O)[C@H]6O[C@@H]6O[C@H](CO)[C@@H](O)[C@H](O)[C@H]6O)[C@@](C)(CO)[C@@H]5CC[C@]43C)[C@@H]2C1 [Cauloside C]	5.7	–
C/C=C(/C)C(=O)O [Angelic acid]	7.1	–
Oc1ccc(CC2NCCc3cc(O)c(O)cc32)cc1 (stereo not shown) [Higenamine (hydrochloride)]	9.5	–
CC1(C)CC[C@]2(C(=O)O)[C@H](O)C[C@]3(C)C(=CC[C@@H]4[C@@]5(C)CC[C@H](O)C(C)(C)[C@@H]5CC[C@]43C)[C@@H]2C1 [Echinocystic acid]	7.2	–
O=C(N[C@H](COC(=O)[C@H](Cc1ccccc1)NC(=O)c1ccccc1)Cc1ccccc1)c1ccccc1 [Asperphenamate]	18	–
CC1=CCC(O)(C(C)C)CC1 (stereo not shown) [Terpinen-4-ol]	10.2	–
Nc1cc(C(=O)O)ccc1O [3-Amino-4-hydroxybenzoic acid]	0	–
COc1ccc(C=O)c(O)c1 [2-Hydroxy-4-methoxybenzaldehyde]	9.1	–

Structure (SMILES)	229E Inhibition rate [%]	229E Inhibition rate (229E Inhibition rate, 24 h) [%]
CC(C)(O)[C@@H]1Cc2cc3ccc(=O)oc3cc2O1 [S-(+)-Marmesin]	17.5	–
C=C1CC[C@]2(C)CC[C@]3(C)[C@H](CC[C@@H]4[C@@]5(C)CC[C@H](O)C(C)(C)[C@@H]5CC[C@]43C)[C@H]2[C@@H]1C [Taraxasterol]	12.5	–
CCCCCCCC(=O)O[C@H](CC(=O)[O-])C[N+](C)(C)C [L-Octanoylcarnitine]	0	–
O=C(O)c1c[nH]c2ccccc12 [Indole-3-carboxylic acid]	22.5	–
O=C(O[C@@H]1Cc2c(O)cc(O)cc2O[C@@H]1c1cc(=O)c(O)c2c(O)c(O)cc([C@H]3Oc4cc(O)cc(O)c4C[C@H]3O)c2c1)c1cc(O)c(O)c(O)c1 [Theaflavin-3-gallate]	–	39.8
COc1cc(-c2cc(=O)c3c(O)c(OC)c(O)cc3o2)cc(O)c1OC [5,7,3'-Trihydroxy-6,4',5'-trimethoxyflavone]	0	–
Nc1nc(=O)c2nc(CNc3ccc(C(=O)N[C@@H](CCC(=O)O)C(=O)O)cc3)cnc2[nH]1 [Folic acid]	21.7	–
C=CC[S+]([O-])C[C@H](N)C(=O)O (stereo partly shown) [Alliin]	4.1	–
CC(=O)N[C@@H](CC(C)C)C(=O)O [N-Acetyl-L-leucine]	5.7	–
OCC1CCCCO1 (stereo not shown) [2-Hydroxymethyltetrahydropyran]	4.6	–
COc1ccc(-c2cc(=O)c3c(O)cc(O)cc3o2)cc1O [Diosmetin]	0	–
CCCCCCCCCC(C)O (stereo not shown) [2-Undecanol]	13	–
CC1(C)Oc2cc3oc(=O)ccc3cc2CC1O (racemic) [(±)-Decursinol]	14.2	–
CC(N)=O [Acetamide]	12.5	–
COc1cc2c(cc1CC=C(C)C)C(=O)C[C@@H](c1ccc(O)cc1)O2 [Bavachinin]	36.7	–
CC(C)=CC[C@]12Oc3cc(O)c([C@H]4C=C(C)C[C@H](c5ccc(O)cc5O)[C@H]4C(=O)c4ccc(O)cc4O)c(O)c3C(=O)[C@@]1(O)Oc1cc(O)ccc12 [Sanggenon C]	43.3	–
C/C=C(/C)C(=O)O[C@H]1[C@H](OC(C)=O)[C@@]2(CO)C(CC1(C)C)C1=CCC3[C@@]4(C)CC[C@H](O[C@@H]5O[C@H](C(=O)O)[C@@H](O[C@@H]6O[C@H](CO)[C@@H](O)[C@H](O)[C@H]6O)[C@H](O)[C@H]5O[C@@H]5O[C@H](CO)[C@@H](O)[C@H](O)[C@H]5O)[C@](C)(CO)C4CC[C@@]3(C)[C@]1(C)C[C@H]2O (stereo partly shown) [Saponins]	3.2	–
C=CCc1ccc(OC(C)=O)c(OC)c1 [Eugenol acetate]	9.1	–
CC1(C)COC(=O)C1O (racemic) [DL-Pantolactone]	0	–
COc1cc2ccc(=O)oc2c(OC)c1OC [Dimethylfraxetin]	11.8	–
CC(C)=CCCC(C)CCO (stereo not shown) [Citronellol]	12.8	–
CC1(C)CCC[C@](C)([C@H]2CC[C@]3(C)[C@@H]2[C@H](O)C[C@@H]2[C@@]4(C)CC[C@H](O)C(C)(C)[C@@H]4[C@@H](O)C[C@]23C)O1 [Panaxatriol]	15.9	–

Structure (SMILES)	229E Inhibition rate [%]	229E Inhibition rate (229E Inhibition rate, 24 h) [%]
CC(C)(O[C@@H]1O[C@H](CO)[C@@H](O)[C@H](O)[C@H]1O)[C@@H]1CC[C@](O)(CO)[C@H]2CC(=O)[C@@](C)(O)[C@@H]2C1 [Atractyloside A]	20	–
O=c1cc(-c2ccccc2)oc2cc(O)cc(O[C@@H]3O[C@H](CO)[C@@H](O)[C@H](O)[C@H]3O)c12 [Toringin]	4.4	–
C=C(C)[C@H]1Cc2c(ccc3c2O[C@@H]2COc4cc(OC)c(OC)cc4[C@@H]2C3=O)O1 [Rotenone]	2.8	–
O=C1C[C@@H](c2ccc(O[C@@H]3O[C@H](CO)[C@@H](O)[C@H](O)[C@H]3O[C@H]3OC[C@@](O)(CO)[C@@H]3O)cc2)Oc2cc(O)ccc21 [Liquiritin apioside]	16.3	–
CC(=O)O[C@H]1C[C@H](O[C@H]2[C@@H](O)C[C@H](O[C@H]3[C@@H](O)C[C@H](O[C@H]4CC[C@@]5(C)[C@H](CC[C@@H]6[C@@H]5C[C@@H](O)[C@]5(C)[C@@H](C7=CC(=O)OC7)CC[C@]65O)C4)O[C@@H]3C)O[C@@H]2C)O[C@H](C)[C@H]1O[C@@H]1O[C@H](CO)[C@@H](O)[C@H](O)[C@H]1O [Lanatoside C]	19.6	–
CCC/C=C1\OC(=O)C2=C1CC[C@@H](O)[C@H]2O [Senkyunolide H]	47.8	–
COc1cc2ccc(=O)oc2c(OC)c1O [Isofraxidin]	31	–
C1CCN2C[C@H]3C[C@H](CN4CCCC[C@@H]34)[C@H]2C1 [(+)-Sparteine (sulfate pentahydrate)]	–	17.2
CC(C)=CCc1cc(-c2coc3cc(O)ccc3c2=O)ccc1O [Neobavaisoflavone]	0	–
c1ccc2c(-c3nccs3)c[nH]c2c1 [Camalexin]	15.6	–
CCCCCCCCC(=O)OCC [Ethyl nonanoate]	11.4	–
Cc1ncc([N+](=O)[O-])n1CCO [Metronidazole]	35.8	–
O=C(/C=C/c1ccc(O)c2c1[C@H](C(=O)O[C@H](Cc1ccc(O)c(O)c1)C(=O)O)[C@@H](c1ccc(O)c(O)c1)O2)O[C@H](Cc1ccc(O)c(O)c1)C(=O)O [Magnesium Lithospermate B]	6.1	–
CC1(C)CCC[C@](C)([C@H]2CC[C@]3(C)[C@@H]2[C@H](O)C[C@@H]2[C@@]4(C)CC[C@H](O)C(C)(C)[C@@H]4CC[C@]23C)O1 [Panaxadiol]	13	–
O=C(O)CCC(=O)O [Disodium succinate]	–	8.4
CC1=C(/C=C/C(C)=C/C=C/C(C)=C/C(=O)O)C(C)(C)CCC1=O [all-trans-4-Oxoretinoic acid]	11.5	–
C=CC[C@@H]1/C=C(\C)C[C@H](C)C[C@H](OC)[C@H]2O[C@@](O)(C(=O)C(=O)N3CCCC[C@H]3C(=O)O[C@H](/C(C)=C/[C@@H]3CC[C@@H](O)[C@H](OC)C3)[C@H](C)[C@@H](O)CC1=O)[C@H](C)C[C@@H]2OC [Tacrolimus (monohydrate)]	31.6	–
COc1ccc2[nH]cc(CCNC(C)=O)c2c1 [Melatonin]	45.9	–
O=C(CCc1ccc(O)cc1)c1c(O)cc(O[C@@H]2O[C@H](CO)[C@@H](O)[C@H](O)[C@H]2O)cc1O [Trilobatin]	12.6	–
NC[C@H]1O[C@H](O[C@H]2[C@H](O[C@@H]3O[C@H](CO)[C@@H](O)[C@H]3O)[C@@H](O)[C@H](N)C[C@@H]2N)[C@H](N)[C@@H](O)[C@@H]1O [Ribostamycin (sulfate)]	15.2	–

5 compounds out of the list, ordered by SMILES length, low to high.
Structure (SMILES)	229E Inhibition rate [%]	229E Inhibition rate (229E Inhibition rate, 24 h) [%]
CC(C)=CCCC(C)CCO (stereo not shown) [Citronellol]	12.8	–
C=C[C@H]1[C@H](O[C@@H]2O[C@H](CO)[C@@H](O)[C@H](O)[C@H]2O)OC=C(C(=O)OC)[C@H]1CC=O [Secologanin]	9.8	–
O=C1C[C@@H](c2ccc(O[C@@H]3O[C@H](CO)[C@@H](O)[C@H](O)[C@H]3O[C@H]3OC[C@@](O)(CO)[C@@H]3O)cc2)Oc2cc(O)ccc21 [Liquiritin apioside]	16.3	–
C=CC[C@@H]1/C=C(\C)C[C@H](C)C[C@H](OC)[C@H]2O[C@@](O)(C(=O)C(=O)N3CCCC[C@H]3C(=O)O[C@H](/C(C)=C/[C@@H]3CC[C@@H](O)[C@H](OC)C3)[C@H](C)[C@@H](O)CC1=O)[C@H](C)C[C@@H]2OC [Tacrolimus (monohydrate)]	31.6	–
CC1(C)CC[C@]2(C(=O)O)CC[C@]3(C)C(=CC[C@@H]4[C@@]5(C)CC[C@H](O[C@@H]6OC[C@H](O)[C@H](O)[C@H]6O[C@@H]6O[C@H](CO)[C@@H](O)[C@H](O)[C@H]6O)[C@@](C)(CO)[C@@H]5CC[C@]43C)[C@@H]2C1 [Cauloside C]	5.7	–
